Experimental findings from article PMC7819943, “Rice protein-binding microarrays: a tool to detect cis-acting elements near promoter regions in rice” are described below.

Chains of the proteins cited; added tags and fusions are not shown.
UniProt Q0JBA9, entry or part of it: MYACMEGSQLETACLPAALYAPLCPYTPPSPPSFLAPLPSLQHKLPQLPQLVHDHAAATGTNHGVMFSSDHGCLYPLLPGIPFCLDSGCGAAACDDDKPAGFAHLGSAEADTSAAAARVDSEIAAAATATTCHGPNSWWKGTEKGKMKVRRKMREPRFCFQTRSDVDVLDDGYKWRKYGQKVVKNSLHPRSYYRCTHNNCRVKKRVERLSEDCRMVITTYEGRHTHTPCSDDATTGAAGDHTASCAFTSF

The list shows a part of the results.

In the assay the target is OsWRKY34 (Oryza sativa, UniProt Q0JBA9 1-250). Put plainly: protein-binding microarray (RPBM); PBS, 2% BSA, 51.3 ng/ul salmon testes DNA, 50 uM zinc acetate, 200 nM TF, 25 C, 1 h; high values mean tight binding. The note with it: protein: recombinant; tags: N-terminal polyhistidine and DsRed monomer fusion (pET32a); label: CyDye5-dUTP incorporated in the synthesized complementary strand; 3' TTTTT single-stranded linker to array surface; dsDNA, one strand shown. The method in brief: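 The binding signal is fluorescence intensity per feature, in arbitrary units, read on an Axon 4000B scanner. Polyhistidine- and DsRed-tagged transcription factors (N-terminal fusions) from E. coli BL21-CodonPlus were purified on Ni–NTA and applied at 200 nM for 1 h at 25 °C to a double-stranded, BSA-blocked custom Agilent array in buffer with 50 µM zinc acetate.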
Turning to “AAGTAGTTTTTGTGTTGCTGCTTTTCGCCCTCACAAATATCGGAGTCACCTAGTGCAG”, the binding signal was 10800 fluorescence intensity (a.u.).

As to “CTGCAGACCCAGCTAGCATAGCCGATGTCTCCTCTTGCTACGGAGTCACCTAGTGCAG”, the binding signal is 8640 fluorescence intensity (a.u.). As for “TTATCATGTCAGTACTACTATGCACATATAACTTGTGTACCGGAGTCACCTAGTGCAG”, the binding signal was 8020 fluorescence intensity (a.u.). For “CGCCCTGTTCCTTCCGCCGTACCGCACAGGACGAGGACCACGGAGTCACCTAGTGCAG” the value was 8970 fluorescence intensity (a.u.). With “CGCCGCCACAACCGCGCGCCGTCACCGCCGCGTGCCGTCACGGAGTCACCTAGTGCAG”, the binding signal is 8250 fluorescence intensity (a.u.). For “TGGGATTAGGGTTCTTGTCTCGGAGAGTCGGAGGCTTTGGCGGAGTCACCTAGTGCAG”, the binding signal was 8610 fluorescence intensity (a.u.). As to “ATTGTCCTTGGCTCTCACGATCTCACAATACACCATTAGACGGAGTCACCTAGTGCAG”, the binding signal is 9080 fluorescence intensity (a.u.). Take “AAACCGATCGCACACCCATCCGCCGGCGTCCTCAGCTCGACGGAGTCACCTAGTGCAG”: the binding signal was 9860 fluorescence intensity (a.u.). As to “CCCCATGCGCCGCCCGCCCCTCCGCGTAGCAATTCGCCGGCGGAGTCACCTAGTGCAG”, the binding signal is 10600 fluorescence intensity (a.u.). For “ACCCAGTCCCATTCCTCAAGCCCATTGGACACAACATGTCCGGAGTCACCTAGTGCAG”, the binding signal was 9580 fluorescence intensity (a.u.).

Regarding “ACATCCTACTCATGACACACTCATGCATGCCACCTCATCCCGGAGTCACCTAGTGCAG”, the binding signal is 12200 fluorescence intensity (a.u.).

With “ACCATCAACGGCCCACCTCTCATCCGCAGCATATAACACCCGGAGTCACCTAGTGCAG”, the binding signal is 9800 fluorescence intensity (a.u.). In the case of “TTGAGTTTGGATAATTAATTAATCATGTTTCTGTTCTTATCGGAGTCACCTAGTGCAG” it was 8500 fluorescence intensity (a.u.); in that of “GAGATTTGTTTGATGTATCAGGGTGTCACGTTGTCATGTTCGGAGTCACCTAGTGCAG”, 11400 fluorescence intensity (a.u.). For “TGTTCAGTCACTCCACTATAAATATGCCACTGCAGTACTGCGGAGTCACCTAGTGCAG” the value was 10200 fluorescence intensity (a.u.); for “CAGCTCATTCATACATTAGTTATCTATAAATCATTAACATCGGAGTCACCTAGTGCAG”, 8590 fluorescence intensity (a.u.). For “TCCAGGTAACCCTTCGCTTTCCTCATTTCTGTATCGTTTCCGGAGTCACCTAGTGCAG” the value was 11600 fluorescence intensity (a.u.); for “TTAACAAAATTATTCATAGCCGTTGACTCTAGATTTTGGCCGGAGTCACCTAGTGCAG”, 9000 fluorescence intensity (a.u.); for “GAGGAGAGGCGGGGTGAGACGGGACGGGAGGGTGGCGATGCGGAGTCACCTAGTGCAG”, 9530 fluorescence intensity (a.u.). Regarding “TGCCGGCATTGTCATCGCATGCCATTCATCCACTCGACTTCGGAGTCACCTAGTGCAG”, the binding signal was 9500 fluorescence intensity (a.u.). On to “TTCACTATCTCAGCCATTCCTTTTGTACCGCTCTTGTTGACGGAGTCACCTAGTGCAG”, for which the binding signal was 9650 fluorescence intensity (a.u.).

As for “TTTTTTTTTGTTTTTTCTCAATAGTTTTTCTTTATTTCATCGGAGTCACCTAGTGCAG”, the binding signal is 8530 fluorescence intensity (a.u.).

As for “TTCGAGCTATATGTCTCTATCTACATTTCATTATTGTTATCGGAGTCACCTAGTGCAG”, the binding signal is 8220 fluorescence intensity (a.u.). For “TACTTGGTGCAGTGTTGAGCCTTGTTTTACAATAAATTTTCGGAGTCACCTAGTGCAG” the value was 8100 fluorescence intensity (a.u.); for “CCAACTCACAAACTAACATGACTTTGACCTTGTTTATGCACGGAGTCACCTAGTGCAG”, 8030 fluorescence intensity (a.u.); for “AATAGTCTGAAACAACTTGTAGTGTCTGTTTCCATGTTGCCGGAGTCACCTAGTGCAG”, 9580 fluorescence intensity (a.u.).

“GCCGCACCCAACCAACCCGCCACCGTCTCCCACACGCGCCCGGAGTCACCTAGTGCAG”: the binding signal was 8380 fluorescence intensity (a.u.).

For the sequence “CCACATTCTCCATATTCTCAGAAGCTTGATACTAACTAGCCGGAGTCACCTAGTGCAG”, the binding signal is 8110 fluorescence intensity (a.u.). In the case of “TCGGCTGTGCCTGTTCGCGACCGTTCGATTTCCTCCTGATCGGAGTCACCTAGTGCAG” it was 9060 fluorescence intensity (a.u.).

On to “CCCCATCCTTCACGTGCATCTGCATCTTCATCTTCTCTGCCGGAGTCACCTAGTGCAG”, for which the binding signal was 8080 fluorescence intensity (a.u.). In the case of “AACGCCGCCACCTACCAAACGCATGAATCATACGAAATTTCGGAGTCACCTAGTGCAG” it was 8160 fluorescence intensity (a.u.). On to “AATCAAAATCCCTCCTTTCCTTGGCTTGCATCCTTGTCACCGGAGTCACCTAGTGCAG”, for which the binding signal is 8560 fluorescence intensity (a.u.). In the case of “CCTTCCGTGTACACCACCATCACACCCTCCCGTCCGTCCGCGGAGTCACCTAGTGCAG” it was 8490 fluorescence intensity (a.u.); in that of “CTTTTCAGTGTGACCGTGTCCACTTCACTTCACTTCGCCGCGGAGTCACCTAGTGCAG”, 9010 fluorescence intensity (a.u.). For “TCTTCTCAATTGCCCTACATTACAAAGACGTACAGTGTCCCGGAGTCACCTAGTGCAG” the value was 8850 fluorescence intensity (a.u.). Regarding “CGCATGCAGCTTCACGTTTCTGATCTCTTCTTTTTGCTCGCGGAGTCACCTAGTGCAG”, the binding signal is 11900 fluorescence intensity (a.u.). For “ACAGTTCGTTACGGTCCTAACCGTATGTTTTTTATACCTCCGGAGTCACCTAGTGCAG” the value was 9500 fluorescence intensity (a.u.); for “TGTACATGGATGTAGCTTCTTCTTCTTCTTCTTCTGTTCACGGAGTCACCTAGTGCAG”, 10900 fluorescence intensity (a.u.). In the case of “TTTTCACCATGTGTCATTGAAGCAATTATCTCGTTCATCACGGAGTCACCTAGTGCAG” it was 8830 fluorescence intensity (a.u.); in that of “AGCTATCTTTTTGTGTTTCTTTTATTTTCCAGTTCTTGTACGGAGTCACCTAGTGCAG”, 14000 fluorescence intensity (a.u.). For “TTGATTTCGTTGGGGTTTGCGTTGCGTGCGGAGGACGGGGCGGAGTCACCTAGTGCAG” the value was 15200 fluorescence intensity (a.u.); for “GCTCCGCTGCTATAAGAAACCCACTGTTTTCCACTACTTACGGAGTCACCTAGTGCAG”, 10100 fluorescence intensity (a.u.).
